According to paper PMC7017090, “Repaglinide Silences the FOXO3/Lumican Axis and Represses the Associated Metastatic Potential of Neuronal Cancer Cells” (Cells, 2019):
For at least one entry, the source does not settle the construct or the ends of the probe. The comparison behind a weaker result is the experiment's own reference, which may not be listed here. For part of these data: Where cells or extracts were used, other partners may take part. For part of these data: At least one verdict rests on a figure or table, not on a statement of the authors.

Sequences of proteins named here, by UniProt entry; tags and fusion partners are left off. Residues count along the entry.
UniProt O43524, 156-269: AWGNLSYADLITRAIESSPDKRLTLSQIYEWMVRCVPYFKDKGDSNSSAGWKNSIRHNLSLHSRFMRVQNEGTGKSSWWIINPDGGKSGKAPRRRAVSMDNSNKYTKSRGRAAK

Experiments:
FOXO3-DBD (human) = FOXO3-DBD (human) (UniProt O43524); assay: EMSA; details: with increasing repaglinide, dose-dependent loss of shift; Not stated; FPA and FAM-EMSA as described in ref 24; recombinant protein; residues 156-269
FOXO3(A3)ERtm = FOXO3(A3)ERtm (UniProt O43524); assay: EMSA; details: SH-EP/FOXO3 cell extract, 50 nM 4OHT, Not stated, protein in an extract

## AGCAAAGTTGTTTTTGATAATG (double strand) [FoxP3 oligonucleotide (FAM)]
FOXO3-DBD (human)
  binding result: binds more weakly
FOXO3(A3)ERtm; cells treated with 55 uM repaglinide 4 h, complex formation inhibited, FPA and FAM-EMSA as described in ref …
  binding result: binds more weakly
FOXO3(A3)ERtm; FPA and FAM-EMSA as described in ref 24
  binding result: binds
